These are yes or no findings as the source states them, for the method shown. Some entries that bind do so weakly or less than the wild type. One block for each binder: values may come before it.
Columns and labels:
[1] = molecular target: HSA-domain I-II construct (human) (UniProt P02768); experiment: Biacore with recombinant HSA fragments
[2] = molecular target: HSA-domain I-II construct (human) (UniProt P02768); experiment: Biacore, HSA or domain construct captured on chip
rhesus serum albumin = molecular target: T1, rhesus serum albumin (rhesus, UniProt Q28522 17-600); experiment: SPR, albumin captured on CM5 chip
T1 construct: also called RhSA

Sequences of proteins named here, by UniProt entry; tags and fusion partners are left off. A change or cut given only in a name is not applied to a line headed by its entry. Residues count along the entry.
UniProt P02768: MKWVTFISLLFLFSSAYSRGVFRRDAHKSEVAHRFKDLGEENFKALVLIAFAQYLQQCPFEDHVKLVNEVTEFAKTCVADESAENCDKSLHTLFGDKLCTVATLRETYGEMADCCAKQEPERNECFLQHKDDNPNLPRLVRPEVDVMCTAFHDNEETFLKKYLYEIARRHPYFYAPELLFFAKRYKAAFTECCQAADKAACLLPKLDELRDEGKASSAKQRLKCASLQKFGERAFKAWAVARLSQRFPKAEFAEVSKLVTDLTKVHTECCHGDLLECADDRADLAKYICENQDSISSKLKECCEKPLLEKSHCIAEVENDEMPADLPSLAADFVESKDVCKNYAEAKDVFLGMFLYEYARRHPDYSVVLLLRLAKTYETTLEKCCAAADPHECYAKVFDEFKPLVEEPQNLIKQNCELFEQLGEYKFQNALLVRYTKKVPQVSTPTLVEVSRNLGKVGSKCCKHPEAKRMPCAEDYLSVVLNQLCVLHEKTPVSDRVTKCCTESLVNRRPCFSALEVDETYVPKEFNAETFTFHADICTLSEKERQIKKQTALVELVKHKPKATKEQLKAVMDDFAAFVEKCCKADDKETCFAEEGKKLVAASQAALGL
HSA-domain I-II construct: residues 25-403 of P02768
UniProt Q28522, residues 17-600: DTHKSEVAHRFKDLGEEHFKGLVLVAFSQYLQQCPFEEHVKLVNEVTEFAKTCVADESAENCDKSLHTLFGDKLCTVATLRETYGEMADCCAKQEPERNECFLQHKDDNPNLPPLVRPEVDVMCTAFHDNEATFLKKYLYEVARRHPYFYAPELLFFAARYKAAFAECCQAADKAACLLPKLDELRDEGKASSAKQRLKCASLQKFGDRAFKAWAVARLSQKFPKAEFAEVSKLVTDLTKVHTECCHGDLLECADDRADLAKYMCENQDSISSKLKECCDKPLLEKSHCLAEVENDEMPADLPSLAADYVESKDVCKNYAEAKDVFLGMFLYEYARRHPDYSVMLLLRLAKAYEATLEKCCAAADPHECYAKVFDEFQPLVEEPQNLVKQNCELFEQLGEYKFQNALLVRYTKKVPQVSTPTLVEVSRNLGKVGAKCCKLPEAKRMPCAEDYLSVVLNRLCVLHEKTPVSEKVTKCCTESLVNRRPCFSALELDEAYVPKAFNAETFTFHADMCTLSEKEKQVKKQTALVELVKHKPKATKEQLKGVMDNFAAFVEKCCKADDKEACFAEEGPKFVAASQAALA

human serum albumin = molecular target: T2, human serum albumin (human, UniProt P02768 25-609); experiment: Biacore, HSA or domain construct captured on chip
T2 construct: also called HSA

B1: SABA1.2 (designed binder)
chain: MGVSDVPRDLEVVAATPTSLLISWHSYYEQNSYYRITYGETGGNSPVQEFTVPYSQTTATISGLKPGVDYTITVYAVYGSKYYYPISINYRTEIEDEDEDEDED
notes: core 1 with (ED)5 extension
binding [1]: binds

B4: SABA2.1 (designed binder)
chain: MGVSDVPRDLEVVAATPTSLLISWPKYDKTGHYYRITYGETGGNSPVQEFTVPTRQTTATISGLKPGVDYTITVYAVSKDDYYPHEHRPISINYRTEIDKPSQHHHHHH
binding [2]: binds

Next, values leading:

binding [2]: binds
B2: SABA1.1 (designed binder)
chain: MGVSDVPRDLEVVAATPTSLLISWHSYYEQNSYYRITYGETGGNSPVQEFTVPYSQTTATISGLKPGVDYTITVYAVYGSKYYYPISINYRTEIDKPSQHHHHHH

binding (rhesus serum albumin): binds
binding (human serum albumin): binds
B3: SABA4.1 (designed binder)
chain: MGVSDVPRDLEMVAATPTSLLISWEDDSYYSRYYRITYGETGGNSPVQEFTVPSDLYTATISGLKPGVDYTITVYAVTYDVTDLIMHEPISINYRTEIDKPSQHHHHHH

From US20130012436A1 (Bristol-Myers Squibb, published 2013)
